Data reported in PubChem BioAssay AID2685 (National Center for Advancing Translational Sciences (NCATS), 2010).
The list shows a part of the results. The main result of the screen is listed elsewhere. These columns were measured beside it and carry no call. Most of these compounds were active or inconclusive in the main read-out, so they are no random draw. Potencies come from curve fits of mixed quality, noted in brackets. Where a SMILES comes first, the peptide text is derived from it. The star is where a group is joined. Bz = O=C(c1ccccc1)*

Assay: qHTS Assay for Lipid Storage Modulators in Drosophila S3 Cells;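 for cell number change: cells counted by Cell Tracker Red CMTPX staining in the red channel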
Settings: BODIPY lipid droplet fluorescence, 18-24 h; for cell number change: measured here: cell count max response, cells fed with added oleic acid
Method in brief: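 Drosophila S3 cells got compounds at several concentrations plus oleic acid (400 uM solution). Laser-scanning cytometry with 488 nm excitation read lipid droplets at 500-530 nm and cells at 575-640 nm. Percent activity was relative to 20 uM Triacsin C.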

[1] = measured here: lipid fluorescence (Fed channel) AC50, cells fed with added oleic acid
[2] = measured here: cell number channel AC50, cells fed with added oleic acid

In the case of Cc1ccn2c(CNC(C)c3cn(C)nc3C)c(C(=O)N3CCCCCC3)nc2c1 (stereo not drawn), the cell number change is reported as -10.8% and the AC50 [1] is reported as 2.31 µM [falling, partial curve, poor fit].

Molecule CCCC(=O)NCCc1nc2cc([N+](=O)[O-])ccc2n1C has a cell number change of 2.77%.

In the case of O=[N+]([O-])c1ccc(/C=N/n2c(COc3ccccc3)n[nH]c2=S)cc1, the cell number change is reported as -74.3%.

With O=C(O)c1ccccc1NS(=O)(=O)c1cccc(N=Nc2c(O)[nH]c(=S)[nH]c2=O)c1 the cell number change was -23%.

With CCn1cc(/C=C(\NC(=O)c2ccccc2F)C(=O)NCCN2CCOCC2)c2ccccc21 the AC50 [1] was 6.51 µM [rising, single point].

With COc1ccc(C(C#N)CCC2OCCO2)cc1OC (stereo not drawn) the cell number change was 11.6% and the AC50 [1] was 0.082 µM [falling, single point].

With CN(Cc1cccs1)C(=O)Cc1csc(-c2ccccc2)n1 the AC50 [1] was 6.51 µM [rising, single point].

In the case of O=C(NCCCN=C1NS(=O)(=O)c2ccccc21)c1ccc(Cl)cc1, the cell number change is reported as 3.48% and the AC50 [1] is reported as 6.51 µM [falling, single point].

For CCc1sc(C(=O)N(CCCOC)c2c(N)n(CC(C)C)c(=O)[nH]c2=O)cc1C, the cell number change was 0.427% and the AC50 [1] was 1.84 µM [falling, partial curve].

For CC(CC(=O)N1CCc2ccccc21)S(=O)(=O)c1ccc2c(c1)NC(=O)CO2 (stereo not drawn), the cell number change was -14.3%, the AC50 [2] was 3.66 µM [rising, single point] and the AC50 [1] was 6.51 µM [rising, single point].

With O=C(Cc1ccc(Cl)cc1)N/N=C/c1c(Cl)cccc1Cl the cell number change was 30.1% and the AC50 [2] was 5.8 µM [rising, full curve, poor fit].

For CCC(CNc1cc(OC)cc2cccnc12)NC1CCCCC1 (stereo not drawn), the cell number change was 8.6% and the AC50 [1] was 16.4 µM [falling, single point].

Work on CC1Cc2ccccc2N1CC(=O)Nc1cccc(S(N)(=O)=O)c1 (stereo not drawn) yielded a cell number change of 5.13%.

With Cc1ccc(S(=O)(=O)NCCC(=O)N(C)Cc2cccs2)cc1 the cell number change was 15% and the AC50 [1] was 1.3 µM [falling, full curve, poor fit].

In the case of CC1(C)Cc2c(sc(NC(=O)c3ccc(C(=O)c4ccccc4)cc3)c2C(N)=O)C(C)(C)N1, the cell number change is reported as -18.8% and the AC50 [1] is reported as 29.1 µM [falling, single point].

In the case of Cc1ccc(C(=O)N2CCN(S(=O)(=O)c3ccc(C)c([N+](=O)[O-])c3)C2)cc1, the cell number change is reported as 25.3%, the AC50 [2] is reported as 0.231 µM [rising, full curve, poor fit] and the AC50 [1] is reported as 0.103 µM [rising, full curve].

For COc1ccc(-c2cn(-c3ccc(C)cc3)c(=O)n2CC(=O)Nc2ccc(OC)cc2OC)cc1, the AC50 [2] was 6.51 µM [rising, single point] and the AC50 [1] was 6.51 µM [rising, single point].

In the case of COCCOC(=O)c1c(C)oc2ccc(O)c(CN3CCC(C)CC3)c12, the cell number change is reported as 34.2% and the AC50 [2] is reported as 5.17 µM [rising, full curve].

In the case of Cc1ccc(C(=O)N2CCN(c3ccc(Cl)cc3)CC2)cc1, the cell number change is reported as -0.0729% and the AC50 [1] is reported as 10.3 µM [rising, partial curve].

Molecule CCCC(=O)Nc1cccc2c1CCCC2 has a cell number change of -1.63%.

For COc1ccc(C(=O)NC2CC2)cc1OC1CCN(C(C)CSC)CC1 (stereo not drawn), the AC50 [1] was 3.66 µM [falling, partial curve].

For CO/N=C/c1ccc(N2CCN(C(=O)c3cccc(Cl)c3)CC2)c([N+](=O)[O-])c1, the cell number change was -69.8% and the AC50 [1] was 0.146 µM [falling, full curve, poor fit].

For CCC1CCCCN1CCCNC(=O)C1CCC(Cn2c(=O)[nH]c3ccccc3c2=O)CC1 (stereo not drawn), the cell number change was 2.41% and the AC50 [1] was 1.64 µM [rising, partial curve].

In the case of Cc1cc(C)nc(Nc2nc(C)c3cc4c(cc3n2)OCO4)n1, the AC50 [2] is reported as 6.51 µM [rising, partial curve, poor fit] and the AC50 [1] is reported as 1.16 µM [rising, partial curve].

In the case of Cc1nc2ccc(NC(=O)N3CCSCC3)cc2nc1C, the cell number change is reported as 5.07% and the AC50 [1] is reported as 1.46 µM [rising, full curve].

In the case of O=C(Nc1ccc(Cl)cc1)Nc1ccccc1NS(=O)(=O)c1cccs1, the cell number change is reported as -29.2% and the AC50 [1] is reported as 1.03 µM [falling, full curve].

In the case of CCc1cc(C(=O)N2CCN(c3ncccn3)CC2)sc1C, the cell number change is reported as 0.803% and the AC50 [2] is reported as 1.46 µM [rising, single point].

For CCOc1ccc2[nH]c(O)c(NC(C)=O)c2c1, the cell number change was 9.41% and the AC50 [1] was 6.51 µM [rising, single point].

Work on O=C(NC(Cc1ccccc1)C(=O)NC(Cc1ccccc1)C(=O)O)c1ccccc1 (stereo not drawn) (Bz-Phe-Phe-OH; configuration not given here) yielded a cell number change of 34.9%.

Work on COC(=O)c1ccc2c(c1)NC(=O)C(N1CCOCC1)S2 (stereo not drawn) yielded a cell number change of 7.15%.

In the case of COc1ccc(N2CC(NS(=O)(=O)c3cccnc3)CC2=O)cc1OC (stereo not drawn), the AC50 [1] is reported as 0.116 µM [rising, full curve, poor fit].

For CC(C)(C)C(=O)Nc1ccccc1C(=O)NCCC(=O)Nc1ccccc1, the cell number change was -28.9% and the AC50 [1] was 11.6 µM [falling, partial curve].

With N#Cc1nc(-c2ccccc2)oc1N1CCC(C(N)=O)CC1 the cell number change was 15.3% and the AC50 [1] was 1.64 µM [falling, partial curve].

For Cc1c(-c2ccccc2)oc2c(C(=O)OCC(=O)Nc3ccc(C(N)=O)cc3)cccc2c1=O, the AC50 [1] was 2.91 µM [rising, single point].

In the case of c1cc2c3c(cccc3c1)C(N1CCOCC1)=N2, the cell number change is reported as 5.66% and the AC50 [1] is reported as 20.6 µM [rising, single point].

In the case of COc1ccc(-n2c(SCC(=O)Nc3ccc(C(=O)O)cc3)nnc2-c2cccs2)cc1, the cell number change is reported as -5.84% and the AC50 [2] is reported as 0.103 µM [falling, full curve, poor fit].

For O=C(NCCN1CCNC1=O)C1CCC(=O)N(CCc2ccc(Cl)cc2)C1 (stereo not drawn), the cell number change was 28.5% and the AC50 [1] was 29.1 µM [rising, single point].

With Cc1cc(CNC(=O)c2cccc(OC3CCN(S(=O)(=O)N(C)C)CC3)c2)on1 the cell number change was -14.8% and the AC50 [1] was 29.1 µM [falling, single point].

For CCN1CCN(C(=O)CN(CC)S(=O)(=O)c2ccc(F)cc2)CC1, the AC50 [2] was 4.11 µM [falling, single point].

Work on Cc1ccccc1COC(=O)c1cc([N+](=O)[O-])ccc1N1CCOCC1 yielded a cell number change of -2.89%.
